Test results: article PMC2852844, “Anti-Parasitic Compounds from Streptomyces sp. Strains Isolated from Mediterranean Sponges” (Marine Drugs, 2010)

Assay: in vitro
Conditions: mouse

CN[C@@H]1C[C@H]2O[C@@](C)([C@@H]1OC)n1c3ccccc3c3c4c(c5c6ccccc6n2c5c31)C(=O)NC4 [staurosporine]
IC50: < 130 nM
